Values from PubChem BioAssay AID743121 (NCATS, 2013).

Purpose: 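Partners whose loss is lethal together with topoisomerase I blockade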 (primary screen)
System: MDA-MB-231 cells, a human breast cancer line
Knock-down reagent: single siRNA against human genes, 20 nM siRNA (0.8 pmol per well)
Duration: 120 h (drug added 48 h after transfection, read 72 h later)
Conditions: camptothecin 20 nM (about EC30) for 72 h; vehicle 0.1% DMSO in parallel plates
Read-out: 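CellTiter-Glo ATP signal, scaled to control siRNA as percent viability; sensitisation given as log2 of untreated divided by camptothecin-treated viability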
Reading the numbers: log2 vehicle/camptothecin viability: higher = stronger sensitisation to camptothecin
Hit rule: 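Each gene scored by redundant siRNA activity (RSA) over its individual siRNA ratios; a gene is called active at p < 0.001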
The deposit covers about 26,000 reagents; this is a part drawn at random. In the full data, 167 (0.63%) were called active. 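Calls are per gene from RSA p-values that are not deposited; an individual active-marked siRNA can sensitise only weakly.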 The numbers tell different reagents against one gene apart. Not all columns of the deposit are shown.

Against RAB37 (GeneID 326624) #1 the deposit lists log2 vehicle/camptothecin viability 1.27; inactive.
Against RAB37 (GeneID 326624) #2, the values are log2 vehicle/camptothecin viability 0.248; inactive.
With knock-down of RAB37 (GeneID 326624) #3, the record shows log2 vehicle/camptothecin viability -0.0161; inactive.
Knock-down of RAB37 (GeneID 326624) #4 gave: log2 vehicle/camptothecin viability -0.68; inactive.
With knock-down of G6PC1 (GeneID 2538) #1, the record shows log2 vehicle/camptothecin viability -0.639; inactive.
Against G6PC1 (GeneID 2538) #2 the deposit lists log2 vehicle/camptothecin viability -0.236; inactive.
Silencing of G6PC1 (GeneID 2538) #3 resulted in: log2 vehicle/camptothecin viability -0.17; inactive.
G6PC1 (GeneID 2538) #4 gave log2 vehicle/camptothecin viability -0.174; inactive.
ZNF444 (GeneID 55311) #1 scored log2 vehicle/camptothecin viability -0.157; inactive.
ZNF444 (GeneID 55311) #2 showed log2 vehicle/camptothecin viability 0.781; inactive.
ZNF444 (GeneID 55311) #3 showed log2 vehicle/camptothecin viability -0.185; inactive.
For ZNF444 (GeneID 55311) #4 the deposit lists log2 vehicle/camptothecin viability 0.0285; inactive.
Silencing of TP53AIP1 (GeneID 63970) #1 gave: log2 vehicle/camptothecin viability 0.248; inactive.
With knock-down of TP53AIP1 (GeneID 63970) #2, the screen gave log2 vehicle/camptothecin viability 1.01; inactive.
Against TP53AIP1 (GeneID 63970) #3 the deposit lists log2 vehicle/camptothecin viability 0.129; inactive.
With knock-down of TP53AIP1 (GeneID 63970) #4, the screen gave log2 vehicle/camptothecin viability -0.231; inactive.
With knock-down of TSPO2 (GeneID 222642) #1, the screen gave log2 vehicle/camptothecin viability -0.203; inactive.
TSPO2 (GeneID 222642) #2 gave log2 vehicle/camptothecin viability -0.303; inactive.
TSPO2 (GeneID 222642) #3 gave log2 vehicle/camptothecin viability -0.113; inactive.
TSPO2 (GeneID 222642) #4 showed log2 vehicle/camptothecin viability -0.307; inactive.

Records above whose gene name begins with T or t:
TP53AIP1 (GeneID 63970) #1: log2 vehicle/camptothecin viability = 0.248; activity call = inactive
TP53AIP1 (GeneID 63970) #2: log2 vehicle/camptothecin viability = 1.01; activity call = inactive
TP53AIP1 (GeneID 63970) #3: log2 vehicle/camptothecin viability = 0.129; activity call = inactive
TP53AIP1 (GeneID 63970) #4: log2 vehicle/camptothecin viability = -0.231; activity call = inactive
TSPO2 (GeneID 222642) #1: log2 vehicle/camptothecin viability = -0.203; activity call = inactive
TSPO2 (GeneID 222642) #2: log2 vehicle/camptothecin viability = -0.303; activity call = inactive
TSPO2 (GeneID 222642) #3: log2 vehicle/camptothecin viability = -0.113; activity call = inactive
TSPO2 (GeneID 222642) #4: log2 vehicle/camptothecin viability = -0.307; activity call = inactive

Next entries follow:
With knock-down of GABRE (GeneID 2564) #1 the results were log2 vehicle/camptothecin viability -0.31; inactive.
After knock-down of GABRE (GeneID 2564) #2, the screen gave log2 vehicle/camptothecin viability -0.449; inactive.
Against GABRE (GeneID 2564) #3 the deposit lists log2 vehicle/camptothecin viability -0.149; inactive.
After knock-down of GABRE (GeneID 2564) #4 the results were log2 vehicle/camptothecin viability -0.516; inactive.
With knock-down of TXNIP (GeneID 10628) #1 the results were log2 vehicle/camptothecin viability 1.34; inactive.
TXNIP (GeneID 10628) #2 showed log2 vehicle/camptothecin viability 0.205; inactive.
TXNIP (GeneID 10628) #3 showed log2 vehicle/camptothecin viability -0.00147; inactive.
Knock-down of TXNIP (GeneID 10628) #4 came out at: log2 vehicle/camptothecin viability 0.331; inactive.
Depletion of FGL2 (GeneID 10875) #1 resulted in: log2 vehicle/camptothecin viability -0.298; inactive.
FGL2 (GeneID 10875) #2 showed log2 vehicle/camptothecin viability -0.154; inactive.
Silencing of FGL2 (GeneID 10875) #3 came out at: log2 vehicle/camptothecin viability -0.265; inactive.
After knock-down of FGL2 (GeneID 10875) #4, the screen gave log2 vehicle/camptothecin viability -0.568; inactive.
Against WT1 (GeneID 7490) #1 the deposit lists log2 vehicle/camptothecin viability -0.0625; inactive.
WT1 (GeneID 7490) #2 showed log2 vehicle/camptothecin viability -0.285; inactive.
Depletion of WT1 (GeneID 7490) #3 resulted in: log2 vehicle/camptothecin viability 0.141; inactive.
Silencing of WT1 (GeneID 7490) #4 resulted in: log2 vehicle/camptothecin viability 0.0366; inactive.
Against GPX4 (GeneID 2879) #1, the entry reads log2 vehicle/camptothecin viability 1.25; active.
With knock-down of GPX4 (GeneID 2879) #2, the screen gave log2 vehicle/camptothecin viability 1.2; active.
After knock-down of GPX4 (GeneID 2879) #3, the record shows log2 vehicle/camptothecin viability 1.48; active.
Against GPX4 (GeneID 2879) #4, the values are log2 vehicle/camptothecin viability -0.106; active.
For TNFRSF8 (GeneID 943) #1, the entry reads log2 vehicle/camptothecin viability -0.219; inactive.
TNFRSF8 (GeneID 943) #2 showed log2 vehicle/camptothecin viability -0.135; inactive.
TNFRSF8 (GeneID 943) #3 gave log2 vehicle/camptothecin viability 0.107; inactive.
TNFRSF8 (GeneID 943) #4 showed log2 vehicle/camptothecin viability -0.431; inactive.
After knock-down of TMPRSS5 (GeneID 80975) #1 the results were log2 vehicle/camptothecin viability -0.379; inactive.
Against TMPRSS5 (GeneID 80975) #2, the entry reads log2 vehicle/camptothecin viability -0.0516; inactive.
